Measured values as given in US11576985B2, “Contrast imaging agent with dissolved gas-evolving fluid” (BAYER HEALTHCARE LLC, priority 2015, dated 2023).

Test: CT attenuation / image contrast in Hounsfield Units

With `[Xe]` [xenon] the image contrast (2 atm oily solvent composition injected and diluted 10:1 by blood) was “about 60 HU” and the image contrast (xenon in an oily solvent at a pressure of 2 atm, 90 kVp) was “about 600 HU”.
